The target in the assay is α7 nicotinic acetylcholine receptor (rat (endogenous in PC12)) (UniProt Q05941). Description: co-IP.

Protein sequences, listed by entry. Tags and fused reporters are not part of them. Residues count along the entry.
UniProt Q05941, residues 23-502: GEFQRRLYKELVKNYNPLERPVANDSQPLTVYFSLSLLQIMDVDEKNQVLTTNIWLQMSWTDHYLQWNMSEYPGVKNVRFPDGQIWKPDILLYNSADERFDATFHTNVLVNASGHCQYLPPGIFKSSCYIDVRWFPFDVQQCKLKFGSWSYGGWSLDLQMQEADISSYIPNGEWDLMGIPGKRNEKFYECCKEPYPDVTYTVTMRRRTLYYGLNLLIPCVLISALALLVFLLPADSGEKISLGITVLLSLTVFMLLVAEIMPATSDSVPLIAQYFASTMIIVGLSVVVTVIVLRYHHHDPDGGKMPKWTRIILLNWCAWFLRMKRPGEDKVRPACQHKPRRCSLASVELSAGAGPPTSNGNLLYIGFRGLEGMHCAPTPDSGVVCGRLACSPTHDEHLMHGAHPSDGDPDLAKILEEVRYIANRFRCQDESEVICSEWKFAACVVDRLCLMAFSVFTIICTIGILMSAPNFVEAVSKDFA
UniProt Q5EGZ1, residues 18-805: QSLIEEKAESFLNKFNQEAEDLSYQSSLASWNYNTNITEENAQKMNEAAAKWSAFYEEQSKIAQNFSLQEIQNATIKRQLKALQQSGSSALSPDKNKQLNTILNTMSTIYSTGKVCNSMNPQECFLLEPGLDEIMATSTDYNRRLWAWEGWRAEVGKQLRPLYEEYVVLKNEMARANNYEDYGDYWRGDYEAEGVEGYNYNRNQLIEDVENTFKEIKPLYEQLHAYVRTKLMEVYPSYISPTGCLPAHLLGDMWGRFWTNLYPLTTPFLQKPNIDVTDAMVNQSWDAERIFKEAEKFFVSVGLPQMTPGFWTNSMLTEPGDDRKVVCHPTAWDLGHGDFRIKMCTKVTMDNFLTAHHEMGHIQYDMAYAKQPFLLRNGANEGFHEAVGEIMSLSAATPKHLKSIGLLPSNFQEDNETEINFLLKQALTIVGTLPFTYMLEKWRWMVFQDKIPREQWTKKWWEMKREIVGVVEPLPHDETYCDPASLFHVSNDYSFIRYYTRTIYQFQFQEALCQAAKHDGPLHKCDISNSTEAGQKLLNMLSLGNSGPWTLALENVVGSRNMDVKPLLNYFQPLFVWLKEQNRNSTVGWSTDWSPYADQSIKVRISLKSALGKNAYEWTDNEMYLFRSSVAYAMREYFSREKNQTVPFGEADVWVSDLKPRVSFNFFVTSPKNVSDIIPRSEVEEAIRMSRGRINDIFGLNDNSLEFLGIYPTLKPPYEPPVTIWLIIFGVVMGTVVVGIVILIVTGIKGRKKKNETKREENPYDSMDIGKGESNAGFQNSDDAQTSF

Results are given in words; binding and its absence hold for the method and conditions named. Binding seen in cells or lysates may run through a third protein. Some entries that bind do so weakly or less than the wild type.

On to “angiotensin converting enzyme 2 (from UniProt Q5EGZ1 18-805)”, for which the binding result is reported as “binds”.

Source of the values: article doi:10.1101/2021.08.12.456154.
